Values from PubChem BioAssay AID686937 (Drosophila RNAi Screening Center, 2013)

Test: 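Genes in the fly needed for secretion of protein constitutively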 (primary screen)
Cells: Drosophila S2 cells expressing secreted horseradish peroxidase
Reagents: long dsRNA against Drosophila genes
Timing: about 5.5 days (5 days dsRNA, then 12 h reporter induction)
Conditions: reporter expression induced after 5 days of dsRNA, read 12 h later; inducer not stated
Measured: 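Chemiluminescent measurement of peroxidase in the medium 12 h after reporter induction, following 5 days of dsRNA, given as a z-score per plate; higher means more secretion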
Direction: z-score: higher = more reporter secreted into medium
The screen tested about 23,000 reagents; this is an unselected part of those with a known target gene and a result. 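Reduced-secretion tags in replicate 1 do not always agree with the z-scores; no criterion for assigning the tags was given.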 The numbers tell different reagents against one gene apart. Not given: the amount of reagent.

target	dsRNA no.	z-score, replicate 1	z-score, replicate 2	z-score, replicate 3	z-score, replicate 4	phenotype, replicate 1
CG10993 (GeneID 32344)	1	0.42	0.48			
CG31638 (GeneID 33910)	1	0.35	0.29			
CG31638 (GeneID 33910)	2	0.55	0.48			
Nlg3 (GeneID 40912)	1	-0.4	-0.07			
Nlg3 (GeneID 40912)	2	0.2	0.37			
Nlg3 (GeneID 40912)	3	0.05	0.03			
Nlg3 (GeneID 40912)	4	0	-0.7			
Send1 (GeneID 33407)	1	0.2	0.12			
Rtel1 (GeneID 31497)	1	0.2	0.33			
Rpn2 (GeneID 43449)	1	-8.11	-6.8			reduced secretion
CG11109 (GeneID 40507)	1	0.37	0.51			
CG14245 (GeneID 3772449)	1	0.54	0.41			
CG3609 (GeneID 33421)	1	0.35	0.26			
Taf12L (GeneID 33672)	1	0.46	0.45			
CG8001 (GeneID 38224)	1	0.08	0.03			
polybromo (GeneID 42954)	1	-0.25	-0.08			
Fbxl4 (GeneID 32378)	1	-0.03	0.18			
GlcAT-I (GeneID 251900)	1	0.08	0.36			
cer (GeneID 37229)	1	0.32	0.08			
CG10919 (GeneID 40917)	1	-0.01	0.25			
CG7271 (GeneID 40021)	1	-0.28	0.3			
Mlc2 (GeneID 43587)	1	0.5	0.49			
Jon65Aiv (GeneID 38682)	1	0.18	0.4			
CG31019 (GeneID 318558)	1	0.08	0.48			
CG4653 (GeneID 32650)	1	-2.08	0.42	0.34	-1.33	
CG4653 (GeneID 32650)	2	0.09	0.07			
DUBAI (GeneID 36361)	1	0.5	0.52			
CG9254 (GeneID 34773)	1	0.78	0.44			
Drak (GeneID 32097)	1	0.15	-0.5			
Lcp65Aa (GeneID 38709)	1	0.16	0.39			
CG15536 (GeneID 43610)	1	0.47	0.44	0.3	0.29	
CG15536 (GeneID 43610)	2	-0.14	0			
Nach (GeneID 36864)	1	-1.25	-0.44			
CG10809 (GeneID 39159)	1	0.53	0.5			
CG3638 (GeneID 31071)	1	0.63	0.56			

The list goes on; the last 5 above are carried over.
target	dsRNA no.	z-score, replicate 1	z-score, replicate 2	z-score, replicate 3	z-score, replicate 4	phenotype, replicate 1
CG15536 (GeneID 43610)	1	0.47	0.44	0.3	0.29	
CG15536 (GeneID 43610)	2	-0.14	0			
Nach (GeneID 36864)	1	-1.25	-0.44			
CG10809 (GeneID 39159)	1	0.53	0.5			
CG3638 (GeneID 31071)	1	0.63	0.56			
GstT2 (GeneID 246386)	1	0.13	0.35			
AstCC (GeneID 34538)	1	-0.03	0.4			
CG7889 (GeneID 32916)	1	0.23	0.12	-0.4	-0.63	
CG12159 (GeneID 35741)	1	0.16	0.33			
CG17109 (GeneID 42730)	1	0.51	0.24			
CG34251 (GeneID 5740860)	1	0.36	0.2			
CG34251 (GeneID 5740860)	2	0.17	0.2			
CG15412 (GeneID 33553)	1	0.3	0.11			
Cyp4c3 (GeneID 43663)	1	-0.12	-0.23			
CG7149 (GeneID 34063)	1	0.33	0.21			
Pex11c (GeneID 42751)	1	0.16	0.29			
CG11227 (GeneID 33071)	1	0.36	0.21			
CG10344 (GeneID 37565)	1	0.43	0.47			
dpr4 (GeneID 3346160)	1	0.23	0.07			
dpr4 (GeneID 3346160)	2	0.36	0.62			
Mvd (GeneID 32520)	1	0.12	0.06			
Mrp5 (GeneID 42362)	1	0.42	0.43			
Mrp5 (GeneID 42362)	2	0.43	0.62			
CG1628 (GeneID 31990)	1	0.21	0.43			
CG10062 (GeneID 37224)	1	0.11	0.06			
CG10062 (GeneID 37224)	2	-0.25	-0.26			
CG13527 (GeneID 37615)	1	0.4	0.32			
CG7607 (GeneID 39263)	1	0.42	0.38			
CG42355 (GeneID 317969)	1	-1.78	0.07			reduced secretion
Cyp4g1 (GeneID 30986)	1	0.17	0.16			
jub (GeneID 32351)	1	0.33	0.16			
Rpp25 (GeneID 35574)	1	0.15	0.41			
tut (GeneID 317996)	1	0.45	0.4			
CG4714 (GeneID 36470)	1	0.33	0.33			
CG14445 (GeneID 31556)	1	0.38	0.15			
p115 (GeneID 31698)	1	-0.6	-0.56			
CG14764 (GeneID 35749)	1	-0.4				
CG14764 (GeneID 35749)	2	0.13	0.29			
CG14764 (GeneID 35749)	3	0.24	0.28			
CG7542 (GeneID 39960)	1	0.16	0.17			
spag (GeneID 43958)	1	0.47	0.2			
CG17260 (GeneID 33519)	1	0.42	0.46			
Hmt-1 (GeneID 41925)	1	0.33	0.17			
CG8414 (GeneID 36774)	1	0.38	0.32			
scu (GeneID 32789)	1	0.09	0.33			
CG11596 (GeneID 31158)	1	0.27	0.32			
CG7646 (GeneID 40187)	1	0.04	0.45			
HDAC6 (GeneID 32461)	1	0.26	0.66			
CG31559 (GeneID 40749)	1	0.05	-0.02			
CG31559 (GeneID 40749)	2	0.18	0.27			
Ir25a (GeneID 33683)	1	-0.19	0.14			
unk (GeneID 42738)	1	0.38	0.38			
